Drawing on publication PMC2568807, this text covers binding for 1 substance.

Chains of the proteins cited; added tags and fusions are not shown. Lines headed by an entry give the natural chain unless they say otherwise; changes in a name come on top.
UniProt B3F8Y1: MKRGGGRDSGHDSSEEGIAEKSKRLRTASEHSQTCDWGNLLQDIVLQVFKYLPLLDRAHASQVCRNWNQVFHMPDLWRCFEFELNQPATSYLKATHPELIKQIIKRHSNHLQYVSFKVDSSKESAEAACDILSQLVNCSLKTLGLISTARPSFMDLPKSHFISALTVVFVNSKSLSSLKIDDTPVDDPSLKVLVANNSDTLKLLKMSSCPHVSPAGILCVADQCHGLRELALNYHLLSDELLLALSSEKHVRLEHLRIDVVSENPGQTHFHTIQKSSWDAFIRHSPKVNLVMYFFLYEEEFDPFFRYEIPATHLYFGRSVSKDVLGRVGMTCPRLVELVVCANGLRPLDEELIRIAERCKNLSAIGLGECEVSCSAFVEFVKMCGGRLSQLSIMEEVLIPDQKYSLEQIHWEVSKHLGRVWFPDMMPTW
UniProt A0ACI6NKV9: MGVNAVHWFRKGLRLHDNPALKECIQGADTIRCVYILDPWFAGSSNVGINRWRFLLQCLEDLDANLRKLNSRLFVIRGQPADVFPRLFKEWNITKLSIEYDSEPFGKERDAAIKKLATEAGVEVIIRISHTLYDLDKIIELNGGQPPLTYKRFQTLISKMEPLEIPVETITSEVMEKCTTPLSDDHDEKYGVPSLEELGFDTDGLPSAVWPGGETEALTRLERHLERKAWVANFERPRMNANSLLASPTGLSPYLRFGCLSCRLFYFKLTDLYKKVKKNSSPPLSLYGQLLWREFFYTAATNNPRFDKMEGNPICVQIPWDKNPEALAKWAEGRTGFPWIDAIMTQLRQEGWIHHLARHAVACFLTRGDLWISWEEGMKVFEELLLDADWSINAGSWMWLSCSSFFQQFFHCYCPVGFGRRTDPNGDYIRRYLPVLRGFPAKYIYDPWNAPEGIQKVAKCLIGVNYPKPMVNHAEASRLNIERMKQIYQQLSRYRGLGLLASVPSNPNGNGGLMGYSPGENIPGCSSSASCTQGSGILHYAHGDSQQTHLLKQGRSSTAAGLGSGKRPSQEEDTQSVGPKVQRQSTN

This test concerns the target ovine Fbxl3 full-length, Myc-tagged (sheep) (UniProt B3F8Y1). Kind of test: co-IP; COS7 cells co-transfected with Myc-Fbxl and Flag-Cry1 vectors, harvested 48 h post-transfection in IP buffer (150 mM NaCl, 5 mM EDTA, 0.5% Nonidet P40, 50 mM Tris pH 7.8); supernatant incubated overnight at 4°C with anti-Myc affinity resin; Western blot with anti-Myc or anti-Flag.

Results are given in words; binding and its absence hold for the method and conditions named. Binding seen in cells or lysates may run through a third protein. Binding can be weak; no strength is given.

For the substance “ovine CRY1 (Cryptochrome 1), Flag-tagged (from UniProt A0ACI6NKV9 1-587)”, the binding result was “binds”.
